Measured values as given in PubChem BioAssay AID504467 (National Center for Advancing Translational Sciences (NCATS), 2011).
The whole screen tested about 330,000 compounds, of which about 7,700 (2.3%) were called active. This list was built around the results that the source calls inconclusive (neither active nor inactive); the mix of calls is not that of the screen. The call rests on the fitted dose curve; in most records, active means well fitted inhibition curve with a large enough effect; inconclusive means small, poorly fitted or top-dose-only effect, or effect the other way; inactive means flat fitted curve, though single readings scatter. Potencies beside an inconclusive call are fits to weak or partial responses and may not hold up.

Assay: qHTS screen for small molecules that inhibit ELG1-dependent DNA repair in human embryonic kidney (HEK293T) cells expressing luciferase-tagged ELG1; further: nearly all actives have a fitted effect of over 55% in size
Conditions: HEK293T ELG1-luciferase reporter, luminescence, 16 h, DNA damage induced by 5-fluorouridine; series mostly up to 46.1 µM
How it was run: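 Overnight (16 hr) co-exposure of 2,000 cells/well to 5-fluorouridine and compound at 37 °C preceded detection. Luciferase was quantified via ONE-Glo luminescence; loss of signal denotes inhibition.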
Potency means the concentration at half of the fitted maximal effect.

SMILES | Potency
CCOC(=O)c1sc(NC(=O)c2ccc(CC)s2)nc1C | inconclusive: 1.41 µM [activator, full curve]
Cc1ccc(C(C)(C)C)cc1S(=O)(=O)Nc1cccc(C(=O)N2CCN(c3ccccn3)CC2)c1 | inconclusive: 29.1 µM [inhibitor, single point]
Cc1cc(NC(=O)C(C)SCC(=O)N(C)Cc2c(F)cccc2Cl)no1 (configuration not stated) | inactive
Cc1ccc2c(CN3CCN(C(=O)c4ccco4)CC3)cc(=O)oc2c1C | inconclusive: 29.1 µM [inhibitor, single point]
c1ccc(-n2nnc(-c3cccnc3)n2)cc1 | inconclusive: 20.6 µM [activator, partial curve]
O=C(NNc1nc(=O)c2cccnc2s1)c1ccccc1O | active: 14.6 µM
C=CCN1C(=O)C(CC(=O)Nc2ccccc2)S/C1=N/c1nccs1 (configuration not stated) | inactive
CN1CCN(C(=O)c2ccc3ccccc3c2)CC1 | inconclusive: 29.1 µM [activator, single point]
Cn1cc(-c2nc3ccccc3[nH]2)c2ccccc21 | inconclusive: 16.4 µM [activator, partial curve]
CCN(CC(=O)Nc1ccc(OC)cc1)C(=O)c1ccc2[nH]c3c(c2c1)CC(C)CC3 (configuration not stated) | inconclusive: 23.1 µM [inhibitor, single point]
COc1cc(OC)cc(-c2c(-c3ccc(C(C)=O)cc3)c3cc(-c4cccc5[nH]ccc45)ccc3n2C)c1 | inactive
Cc1nc(-c2ccc(NC(=O)/C=C\C(=O)O)cc2)cs1 | inconclusive: 16.4 µM [activator, single point]
CCOP(=O)(OCC)c1nc(-c2ccc(Br)cc2)oc1N1CCCCC1 | inactive
Brc1c(CSc2nc3ccccc3o2)nc2ncccn12 | inconclusive: 14.6 µM [activator, partial curve]
Cc1cc(NC(=O)CSc2nnc(Nc3ccccc3F)s2)no1 | inconclusive: 29.1 µM [activator, single point]
CCCCCCCNC(=O)C1(CC2CC(c3ccccc3)=NO2)CCN(C(=O)OC(C)(C)C)CC1 (configuration not stated) | inactive
Cc1c(Cl)cccc1Nc1ccccc1C(=O)O | inactive
N#CC1=C(N)C(C#N)(C#N)C(c2cccnc2)C2CC(c3ccccc3)CC=C12 (configuration not stated) | inconclusive: 2.59 µM [inhibitor, full curve]
COCCN(C(=S)Nc1cc(C)cc(C)c1)C(C)c1ccco1 (configuration not stated) | inactive
CCn1c(C)nc2cc(C(=O)OC(C(F)(F)C(F)F)C(F)(F)C(F)F)ccc21 | inconclusive: 20.6 µM [activator, partial curve]
COc1ccc(NC(=O)COc2ccccc2Cc2ccccc2)cc1S(N)(=O)=O | active: 6.51 µM
CCOC(=O)N1CCN(C(=O)CCSc2ccc(C)cc2)CC1 | inconclusive: 18.4 µM [activator, partial curve]
Cc1cc(C)c(S(=O)(=O)N2CCOC2CNC(=O)C(=O)NCCc2c[nH]c3ccccc23)c(C)c1 (configuration not stated) | inconclusive: 20.6 µM [inhibitor, single point]
O=C(NC1CCCCC1)c1ccccc1NC(=O)C1CC1 | inactive

Structures above that contain fluorine:
SMILES | Potency
Cc1cc(NC(=O)C(C)SCC(=O)N(C)Cc2c(F)cccc2Cl)no1 (configuration not stated) | inactive
Cc1cc(NC(=O)CSc2nnc(Nc3ccccc3F)s2)no1 | inconclusive: 29.1 µM [activator, single point]
CCn1c(C)nc2cc(C(=O)OC(C(F)(F)C(F)F)C(F)(F)C(F)F)ccc21 | inconclusive: 20.6 µM [activator, partial curve]

Remaining list, next part.

SMILES | Potency
NS(=O)(=O)c1ccc(Sc2ccc3ccccc3c2)nc1 | inconclusive: 8.2 µM [inhibitor, partial curve]
COc1ccc(C(=O)NCc2ccc(N3CCN(C)CC3)cc2)cc1 | inconclusive: 32.6 µM [activator, partial curve, poor fit]
Nc1ccc(-c2nc3ccc(N)cc3s2)cc1 | inconclusive: 1.16 µM [activator, partial curve]
CCc1c(C)nc2ncnn2c1NCc1cccs1 | inconclusive: 6.51 µM [inhibitor, partial curve]
O=C(c1cc(C2CC2)nn1-c1ccccc1)N1CCN(c2ccc(O)cc2)CC1 | inconclusive: 0.164 µM [inhibitor, single point]
Cn1c(CN2CCCC2)nc2cc(NC(=O)c3ccco3)ccc21 | inconclusive: 18.4 µM [activator, partial curve]
COc1ccc(N2CCN(Cc3cc4c(cc3Br)OCCO4)CC2)cc1 | inconclusive: 29.1 µM [inhibitor, single point]
CCOc1nc(C)ccc1-c1noc(-c2ccncc2)n1 | inconclusive: 13 µM [activator, partial curve]
COc1ccc(/C=N/Nc2nc(-c3ccc(C)cc3)c(NC(C)=O)s2)cc1OC | inconclusive: 29.1 µM [activator, single point]
COc1ccccc1C1(CC(=O)N2CCCCC2)CCOC(C(C)C)C1 (configuration not stated) | inactive
CC(C)c1ccc(C2NC(=O)NC3=C2CCc2ccccc23)cc1 (configuration not stated) | inactive
CCCC(c1nnnn1Cc1ccc(OC)cc1)N1CCC(C(N)=O)CC1 (configuration not stated) | inactive
COc1ccc(Cl)cc1NC(=O)CN(C)C(=O)c1cn(-c2ccccc2)nc1-c1cccnc1 | inconclusive: 9.2 µM [inhibitor, single point]
Oc1ccccc1N1CCN(c2ccc3ccccc3n2)CC1 | inconclusive: 4.61 µM [activator, partial curve]
N#Cc1cc(-c2ccccc2)nc(NN)n1 | inactive
Cc1ccc(-c2nn(-c3ccccc3)cc2C(=O)Nc2cccc(S(=O)(=O)N3CCOCC3)c2)cc1 | inconclusive: 5.17 µM [inhibitor, partial curve]
COCCN(CC1CCCN(C2Cc3ccccc3C2)C1)C(=O)c1cccs1 (configuration not stated) | inconclusive: 16.4 µM [activator, partial curve, poor fit]
O=C(O)c1cccnc1SC1CC(=O)N(c2cccc(C(F)(F)F)c2)C1=O (configuration not stated) | inactive
COc1ccc(CN(C)C(=O)c2ccccc2OCc2c(C)noc2C)cc1OC | inactive
Cc1ccc(Sc2ncccc2C(=O)NCC(c2ccc(F)cc2)N2CCOCC2)cc1C (configuration not stated) | inactive
COCCNC(=O)c1ccc2c(=O)n(Cc3ccco3)c(SCC(=O)NC3CCCCC3)nc2c1 | inconclusive: 25.9 µM [inhibitor, partial curve, poor fit]
COc1cccc(C(=O)Nc2nc(C)cs2)c1 | inconclusive: 9.2 µM [activator, partial curve]
Cc1ccc(N/C=C/C(=O)c2sc(-c3ccccc3)nc2C)cc1 | inconclusive: 32.6 µM [inhibitor, single point]
CCC1(c2ccccc2)NC(=O)N(CC(=O)Nc2cc(S(=O)(=O)N3CCCCCC3)ccc2OC)C1=O (configuration not stated) | inconclusive: 23.1 µM [inhibitor, single point]

An excerpt from further up, for reference:
SMILES | Potency
Cc1ccc(-c2nn(-c3ccccc3)cc2C(=O)Nc2cccc(S(=O)(=O)N3CCOCC3)c2)cc1 | inconclusive: 5.17 µM [inhibitor, partial curve]
COCCN(CC1CCCN(C2Cc3ccccc3C2)C1)C(=O)c1cccs1 (configuration not stated) | inconclusive: 16.4 µM [activator, partial curve, poor fit]

Following part.

SMILES | Potency
Cn1ccnc1C(O)(c1nnc(-c2ccccc2)o1)C(F)(F)F (configuration not stated) | inconclusive: 1.3 µM [activator, partial curve, poor fit]
COc1ccc(-c2nn(C)c(=O)c3ccccc23)cc1NC(=O)Cn1nc(C)c2ccccc2c1=O | inactive
Cc1ccc(C(=O)NC2CCCCCC2)cc1N1CCCC1=O | inconclusive: 20.6 µM [activator, single point]
Cc1ccc(C2=CC(=O)C[C@H](c3ccc(Cl)cc3)C2)cc1 | inactive
CC(=O)c1ccc(NC(=O)Cn2cnc(S(=O)(=O)N3CCCCC3)c2)cc1 | inconclusive: 20.6 µM [activator, single point]
CCOC(=O)c1c2n(c3ccc(O)cc13)CCC2 | inconclusive: 20.6 µM [activator, single point]
COc1ccc(Nc2cc(C(=O)NCc3ccco3)c3ccccc3n2)c(OC)c1 | inconclusive: 23.1 µM [inhibitor, single point]
O=C(NCCc1csc(-c2ccccc2)n1)c1ccco1 | inactive
COc1ccccc1/C=N/NC(=O)c1c(-c2ccccc2)noc1C | inactive
Cc1cc(=O)n(C)c(=O)n1CCCCCCN1CCCC1 | inconclusive: 25.9 µM [activator, single point]
Cc1ccc(/C=N/NC(=S)Nc2cccc(S(=O)(=O)N(C)C)c2)o1 | inconclusive: 23.1 µM [inhibitor, partial curve]
COC(=O)c1cc(C)sc1NC(=O)CC1Nc2ccccc2NC1=O (configuration not stated) | inconclusive: 20.6 µM [activator, single point]
OC(CN1CCN(c2ccccc2Cl)CC1)c1ccccc1 (configuration not stated) | inactive
NS(=O)(=O)c1ccc(CNC(=S)NC2CCCCC2)cc1 | inconclusive: 29.1 µM [activator, single point]
N#CC1=C(N)N2C(=C(C#N)C1c1ccc(Br)cc1)Nc1ccccc12 (configuration not stated) | active: 2.91 µM
COc1ccc(CN=C(Nc2ccccc2)SC2CC(=O)NC2=O)cc1 (configuration not stated) | inconclusive: 23.1 µM [activator, single point]
Cc1nc2ccccc2n1CC(O)COc1ccccc1Cl (configuration not stated) | inconclusive: 7.3 µM [inhibitor, partial curve]
O=C1COc2ccc(C(=O)CSc3nc4ccccc4c(=O)n3-c3ccc(Cl)c(Cl)c3)cc2N1 | inactive
COc1ccc(N/N=C(C)/C(=N/O)C(=O)Nc2ccccc2)cc1 | inconclusive: 29.1 µM [activator, single point]
COc1cc(NC(=O)c2ccccc2Cl)c2ncccc2c1 | inactive
Cc1c(C(C)C)c(=O)n(-c2ccc(S(=O)(=O)NC3CCCCC3)cc2)n1C | active: 2.06 µM
O=[N+]([O-])c1ccc(Sc2cc[n+]([O-])c3ccccc23)c([N+](=O)[O-])c1 | inconclusive: 16.4 µM [activator, single point]
Cc1cc(NC(=O)CN2CCN(Cc3ccccc3)CC2)nc2c1c(=O)oc1ccccc12 | inconclusive: 23.1 µM [inhibitor, single point]
CN1C(=O)/C(=C/c2ccccc2F)Sc2ccc(C(=O)NCC3CCCO3)cc21 (configuration not stated) | inconclusive: 20.6 µM [inhibitor, partial curve]
